The record followed here is PubChem BioAssay AID1347426 (Functional Genomics Laboratory (NCATS/FGL), 2020).

The campaign covered roughly 31,000 sequences. About 1,400 (4.5%) were called active.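 The calls were made as follows: active = median seed-adjusted z-score above 1 or below -1; inactive = the rest.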 The list shows a part of the results.

The test is described as follows: Novel Modifiers of Survival Motor Neuron (SMN) Protein: Gene Identification via Genome-wide siRNA Screen.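 Also: luminescence tracks full-length SMN protein made from the SMN2 reporter.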 The conditions noted are these: HEK293T SMN2-luciferase reporter, siRNA knockdown, 72 h; actives lie on both sides. In a few lines: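 HEK293T cells stably carrying an SMN2 promoter/splicing cassette–luciferase reporter were reverse-transfected with 1 pmol siRNA per well (druggable-genome library, 3 siRNAs per gene) and grown 72 h at 37 °C. Luminescence, normalized to negative-control siRNA and log10-transformed, was scored as MAD.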
Regarding UGGUCGUUAUGGUCCUAUATT against FUSIP1, the median seed-adjusted z-score was inactive: 0.865. For CCCUGAACAUCUACCAGAATT against PDE6B the value was inactive: -0.336; for GAUUACCGUUUAUUCCAUATT against GSPT1, inactive: -0.761. For GGAAGGAUCAAACUACAAATT against AATF the value was inactive: 0.182. Turning to ACACGUUGGAAGUAGCUGATT against OTUD4, the median seed-adjusted z-score is inactive: 0.167. For the sequence GGCUCAAGUUUGCCCGGAATT against KCNQ2, the median seed-adjusted z-score was inactive: 0.0368. The result for CGUUUAGAGGGCUACCAGATT against ARHGEF11 reads inactive: -0.525; that for GCAUCCCUACGGUUGUUGATT against EIF2B4, inactive: 0; that for GCUCAGGCAUUGUUGGAAATT against VBP1, inactive: 0.317.

Take GCAGUAGAAGUAUCCGGGATT against THSD4: the median seed-adjusted z-score is inactive: 0.0657. The result for CGUGAUGAGUGAUUAUAGATT against SAT1 reads inactive: -0.00791; that for CAAGAUUCUUGACCUUGAATT against PDP2, inactive: -0.0726. For GAACAACUCGGACAAGGAUTT against LMNB2 the value was inactive: -0.15; for GUAUCAAGCUCAUCACCGATT against IDH3A, inactive: 0.137; for AGAGGCUGCGGUUCAAAGATT against PTP4A3, inactive: 0.354.

Turning to GGUGCUGACCGACAAAGAATT against TNFAIP1, the median seed-adjusted z-score is inactive: 0.0766. Regarding GCAGGUUGUAAAUAGUGUATT against CCNO, the median seed-adjusted z-score was inactive: -0.594. The result for GACCUCACGUUGUCGAAGATT against GTPBP4 reads active: 1.01; that for GAAGAGCAUUAAAAGCAUUTT against CARHSP1, inactive: 0.384; that for CGAAAGGGACGAUGACUAUTT against THBS1, inactive: -0.847. For GAGGAGUUCUGUUACGAGATT against DOC2B the value was inactive: -0.423; for CUUUCUAGCAGUCACCAUATT against CIR, inactive: -0.197. The result for GAAGGGCGAUUACGAUGUATT against PTPN14 reads inactive: 0.

For the sequence GAAUAUUCACAGAGCGAUUTT against HOXB4, the median seed-adjusted z-score was inactive: 0.149. The result for CGACUGUUGUGAGCCCAAUTT against SRCRB4D reads inactive: -0.0568; that for GCAGGGUCAUUACGACUCATT against PAX9, active: -1.16. As to CAAGUUCCUUAACAAGGAATT against EIF2B4, the median seed-adjusted z-score was inactive: 0. For CCUUCCGAGUUAUUGGAUATT against DGKI the value was inactive: -0.417.

Turning to AAUCAGAUCAAAAACAUAATT against TNFRSF10C, the median seed-adjusted z-score was inactive: 0. For GAGUCUAAGCUUUUCGAGATT against CAMK1G the value was inactive: -0.358; for GGAGAUUACCUUACGGAAATT against ROCK2, inactive: -0.149. For CAAGGGAGCGUGAACUUUATT against ASCL2 the value was inactive: -0.249. Consider CCUGUGCUGUUAUGAAGCUTT against APC2, for which the median seed-adjusted z-score is inactive: 0.00354. For GGCCGAGAGUUUUACAUGATT against PARS2 the value was inactive: -0.433.

Consider “GGAAGCGAAUACUACUAUUTT against ST6GALNAC3”, for which the median seed-adjusted z-score was inactive: -0.205. The result for CCAACACUAUUGUUGCGCUTT against SLC34A2 reads inactive: 0; that for GGCUGUUGAAGAAAGCGUATT against SLC18A1, inactive: 0.0986; that for GGCCUACAGUUGUCGUUCATT against ZNF555, inactive: 0.141. On to GGUUCCAUCUCGAUUGAUUTT against GPR20, for which the median seed-adjusted z-score was inactive: 0.442. The result for GCAGGUUCCUUAUCUGUCATT against BIRC5 reads inactive: 0.0236; that for CGACAUCAUAUUUAAGGAUTT against SHH, inactive: -0.517; that for GCAUCUUGGAGUCAAGGGATT against RGS12, inactive: 0.404. For CCAUGUCCUUCUUCAACUUTT against RGR the value was inactive: 0.217; for CAUCCAGAGUCAUAGUACATT against POLI, inactive: 0.857. For GAGUUUGACUCAGAUAUAUTT against STX17 the value was inactive: 0.00965. As for GGACUGUCCAAACAACCGATT against CA10, the median seed-adjusted z-score was inactive: 0.255. For UGACGGUGCUGGAAACAUGTT against GGA1 the value was inactive: 0.172. The result for GGUUAGAAAUCAUCAACGATT against NTRK2 reads inactive: 0.103. As to GGACCUGCGGAACCAGAUUTT against ADCK4, the median seed-adjusted z-score is inactive: -0.181. The result for CUUUCUCUAUAUCACCUUUTT against SLC39A1 reads inactive: 0.658; that for ACAACAUCGCAAUCACAUATT against LOC442229, inactive: 0.183. The result for CAGACUAUCUUUUCAGUAATT against MEGF9 reads inactive: -0.0893.

Turning to GGCUGUAUCCAUUACGUCATT against ACACA, the median seed-adjusted z-score was inactive: 0.00665.

Consider CCAAAUGACUGGUCAAGAUTT against HS3ST4, for which the median seed-adjusted z-score was inactive: 0.284. As for GGAUGUGACGAGCCCAGAATT against GRHPR, the median seed-adjusted z-score was inactive: 0.475. The result for CCUCAGUACUCAUCAGAGATT against ZNF510 reads inactive: 0.28; that for GUUCCGAAGUGGUCUCAUUTT against MINPP1, inactive: -0.0107.

Consider CAUUAUUGCUGGUAUAACUTT against ACSL3, for which the median seed-adjusted z-score was inactive: 0. The result for GAGGGACCCUUAUCAGACATT against ELA1 reads inactive: 0.687. In the case of CAGACAUACUUUUUACUCATT against LRRC19, the median seed-adjusted z-score is inactive: -0.062. The result for GGUAAGGCCUUAUAAUGUATT against KHK reads inactive: 0; that for GAAGCUCUGCUAAUAGGUATT against ENOX1, inactive: 0.0694; that for CACUCAGAGAUGUACAGUUTT against RRM2B, inactive: -0.128. For AGGGACUUGUACAGCAAAATT against APOC2 the value was inactive: -0.0599; for GGACAAUGUUGGGAAUAGATT against GPATCH2, inactive: 0.0828. Regarding GGACAACAAAUGGGAAUAATT against GLP2R, the median seed-adjusted z-score was inactive: 0.492. The result for GGCACAUUCUGGAGAGCGATT against MAFA reads inactive: 0.424; that for CCCUCACAGUUCACAUUCATT against WFDC1, inactive: 0.152; that for GUCUAGGAGACAUUCAUUUTT against ACSM2B, inactive: -0.0401.

As to GGAAUUGUAUGGAGACAUUTT against PTGS1, the median seed-adjusted z-score was inactive: 0.0458. Take CACCAAAACCUGAACCCAATT against HMGN3: the median seed-adjusted z-score is inactive: -0.182. For CAGCCUAUGUGACGGGCUATT against HAS3, the median seed-adjusted z-score is inactive: -0.179. For GCAGAUCCACAUGAACAAATT against HDAC9 the value was inactive: -0.135. With GCAUCAAUCGCACCAAGUATT against GPR123, the median seed-adjusted z-score was inactive: 0. GGCUGGACAAUAUCAUUGATT against STAT3: the median seed-adjusted z-score was inactive: 0. For CCAUGUAAGCUGUUGGUUUTT against ZNF343, the median seed-adjusted z-score is inactive: 0.0696. The result for UGAAUGCCUUUUUCUCUGATT against RHOG reads inactive: -0.354; that for GUACGUCCAUUUCCCUAAATT against NLRP11, inactive: 0.181.

As for GAACCAACCUGAAUAUUGATT against PJA1, the median seed-adjusted z-score is inactive: -0.275.

As for GAAGCUGUCGGACUACAAATT against PRDX2, the median seed-adjusted z-score was inactive: -0.359. For CCAAGAUUGUCACUCUGGATT against E2F7 the value was inactive: -0.0972; for CAAAAGUAUUCUUAGGAAATT against SLC25A15, inactive: -0.0116; for CCGGGAAUCCUAAUGGGAATT against CES7, inactive: -0.374.

Regarding GCCGAUUAGUCUAGAAGUATT against SYNM, the median seed-adjusted z-score is inactive: 0.104. The result for GGAGAGCUGUAUAAGAGCUTT against ENO3 reads inactive: -0.142. The result for GGAAAUCGAUAAUGACUAUTT against FAT2 reads inactive: -0.286. For GGCAUCCGCAUGUACCAGATT against LRFN3 the value was inactive: 0.483; for GAAUAGCCUUUUAUCGUUUTT against TLR5, inactive: 0; for GGAUGACGAUAAGUCGGAATT against CHD7, inactive: 0.138. As to GGACGAAGACUGGUAUAUATT against EHF, the median seed-adjusted z-score is inactive: 0.581. The result for CCUCUAACCUUAUUGGAUATT against ZNF10 reads inactive: 0; that for CACGCUAUCUGAUCUUAAATT against PPP2R5E, inactive: 0.421; that for AGAUCGUCAAGGAUAUCCATT against CAV3, inactive: 0.

On to CUUCCGUUAUGAUACAGAATT against GABRA2, for which the median seed-adjusted z-score was inactive: -0.272. The result for GUGUCUUCCUGCAAUAUGATT against FMNL1 reads inactive: -0.3.

For the sequence CUAUCAUGGAAGAUGCUGATT against B3GNT4, the median seed-adjusted z-score was inactive: 0.124. In the case of ACAUGAGUAUCCAUACGAATT against LOC650864, the median seed-adjusted z-score is inactive: 0.214.

With GAGCCUCCUCAAAUCCAAATT against SERPING1, the median seed-adjusted z-score is inactive: -0.244. The result for GCUCCUAACGCAUCACAGATT against ZNF605 reads inactive: -0.596; that for CAUGCAAACUAGAUACUUATT against LMX1A, inactive: 0.15; that for AGAACCUCUUAUGACCUUUTT against RICH2, inactive: 0.4. For CAAAGCCCUUGUUAAGUUUTT against ATP7B the value was inactive: 0.0947; for GCUUGGAGGUGAUUAAGGATT against TRIM9, inactive: -0.437. The result for CAAUGGUGGUGUGAGUCGATT against KCNA6 reads inactive: 0; that for GCCCAGACCUUGUUCUCUATT against CHRNA1, inactive: -0.32. Turning to GCUGCACACCGAGUACUCATT against STK40, the median seed-adjusted z-score was inactive: -0.555. Turning to CCCUCGUCUACUACACUUATT against ABCD4, the median seed-adjusted z-score was inactive: -0.114. With CGAGUUCAUCGUGUACUAUTT against RAMP3, the median seed-adjusted z-score was inactive: 0.
